Earlier results on 1 compound are cited in US20130216482A1, “METHODS AND COMPOSITIONS FOR NON-INVASIVE, DYNAMIC IMAGING OF INTESTINAL MOTILITY” (The Board of Regents of the University of Texas System, priority 2012, published 2013).

For this data set the following is noted: systemic (i.v.) administration; then taken up by the liver and secreted into the bile; cited from earlier work.

For `CC1(C)C(/C=C/C=C/C=C/C=C2\N(CCCCS(=O)(=O)O)c3ccc4ccccc4c3C2(C)C)=[N+](CCCCS(=O)(=O)[O-])c2ccc3ccccc3c21` [ICG, indocyanine green], the normal biological half-life is recorded as 2-4 min.
